Data published in PubChem BioAssay AID488840 (Broad Institute, 2010).
Out of some 1,400 compounds screened, about 45 (3%) were called active.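 The calls were made as follows: active = half-maximal dose of signal decrease from fit no higher than ten times the top valid tested dose; inconclusive = fit invalid, or curve flat with 30 to 70% inhibition; inactive = the rest.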 The list shows a part of the results. Results with a measured potency or affinity are listed apart.

Chains of the proteins cited; added tags and fusions are not shown. Lines headed by an entry give the natural chain unless they say otherwise; changes in a name come on top.
UniProt O75164: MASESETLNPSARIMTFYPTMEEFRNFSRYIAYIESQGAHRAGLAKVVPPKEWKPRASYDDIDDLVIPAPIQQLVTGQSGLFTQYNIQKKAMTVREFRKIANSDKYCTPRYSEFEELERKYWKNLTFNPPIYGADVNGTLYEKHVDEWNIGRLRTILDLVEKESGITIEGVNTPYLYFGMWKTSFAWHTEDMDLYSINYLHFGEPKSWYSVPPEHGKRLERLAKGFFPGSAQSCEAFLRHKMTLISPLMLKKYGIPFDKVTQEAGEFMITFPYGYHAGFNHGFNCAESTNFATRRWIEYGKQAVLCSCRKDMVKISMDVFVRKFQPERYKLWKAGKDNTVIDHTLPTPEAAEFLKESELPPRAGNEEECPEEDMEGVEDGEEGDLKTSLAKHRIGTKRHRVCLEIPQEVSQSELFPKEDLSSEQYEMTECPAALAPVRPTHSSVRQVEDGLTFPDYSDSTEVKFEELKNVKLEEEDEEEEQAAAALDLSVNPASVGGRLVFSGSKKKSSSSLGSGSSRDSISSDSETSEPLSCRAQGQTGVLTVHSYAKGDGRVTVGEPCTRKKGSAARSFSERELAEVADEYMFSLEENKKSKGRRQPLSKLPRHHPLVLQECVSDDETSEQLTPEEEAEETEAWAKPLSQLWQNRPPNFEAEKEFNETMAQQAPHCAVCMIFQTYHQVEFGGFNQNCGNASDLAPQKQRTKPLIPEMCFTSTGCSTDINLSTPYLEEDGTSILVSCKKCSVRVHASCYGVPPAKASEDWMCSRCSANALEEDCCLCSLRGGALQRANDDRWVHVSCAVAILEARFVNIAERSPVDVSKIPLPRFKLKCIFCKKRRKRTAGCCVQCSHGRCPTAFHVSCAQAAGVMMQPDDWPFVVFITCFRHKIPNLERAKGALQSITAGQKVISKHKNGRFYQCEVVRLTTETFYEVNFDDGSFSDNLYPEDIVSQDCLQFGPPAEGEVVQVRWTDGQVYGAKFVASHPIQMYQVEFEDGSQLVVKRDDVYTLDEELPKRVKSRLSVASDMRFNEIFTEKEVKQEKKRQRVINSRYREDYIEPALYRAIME

Target: Lysine-specific demethylase 4A (Homo sapiens) (UniProt O75164)
Test: inhibition of JMJD2A H3K9me3 demethylation – biochemical, DELFIA europium, cherry-picked samples, selectivity assay for GASC-1 inhibitor project, dose response (AID 488840);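 also: europium signal reports the dimethyl H3K9 product detected by antibody so inhibitors lower it; 0% = median of neutral control wells and -100% = median of positive control wells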
Conditions: GST-JMJD2A(1-420) H3K9me3 demethylation; at 6 µM (top of the series) unless noted

Activity change, negative = inhibition, inactive:
CS(=O)(=O)N(CC(=O)Nc1ccccc1C(=O)NCCc1ccccc1)c1ccc2c(c1)OCCO2 0.741%
O=c1oc2ccccc2cc1-c1nc(-c2cccs2)cs1 -0.264%
CC(C)Cn1c(N)c(C(=O)COC(=O)c2c(O)c(Cl)cc(Cl)c2Cl)c(=O)n(C)c1=O 3.81%
Cc1c(Cl)c(-c2n[nH]c(=S)n2-c2ccc(F)cc2)nn1C -13%
COc1cc(OC)cc(C(=O)Nc2ccc(-n3cnnn3)c(C)c2)c1 0.0409%
Cc1ccc(C)c(N2CCN(C(=O)Cn3ncc4c([nH]c5ccc(C)cc54)c3=O)CC2)c1 6.03%
COc1ccc(/C=N/N=C2\CC3CCC2(C)C3(C)C)cc1O (centres undefined) 0.844%
CCOC(=O)N1CCN(C(=S)NC(=O)c2ccc(F)cc2)CC1 -5.79%
COc1ccc(/C=C2/CC/C(=C\c3ccc(OC)c(OC)c3OC)C2=O)c(OC)c1OC -0.189%
CC(C)(C)n1ncc2c(=O)n(Cc3ccccc3Br)cnc21 4.21%
Cc1ccc(S(=O)(=O)NCCC(=O)Oc2ccc3ccc(=O)oc3c2)cc1 -3.57%
C=CCn1c(O)c(N=Nc2ccccc2C)c2ccccc21 -6.46%
Oc1ccc(Br)cc1/C=N/Nc1nc(N2CCCCC2)nc(N2CCOCC2)n1 -3.41%
Cc1ccc(OCCSc2nnc(-c3cccs3)n2C)cc1 -1.32%
CC[C@@H]1C=C(C(=O)O)[C@H](c2ccc(C)cc2)N1S(=O)(=O)c1ccc(C)cc1 -2.45%
Cc1cc(N(CN2CCCC2=O)C(=O)c2ccc(F)cc2)no1 -4.04%
N#CC1=C(C2CC2)CC(c2ccccc2)C(C#N)=C1N (centres undefined) 1.86%
Cn1c(SCC(=O)N2CCCC2=O)nnc1-c1ccccc1F 4.73%
COc1ccc(-c2csc(NNC3=NCCCCC3)n2)cc1 0.166%
CCN(CC)C(=O)[C@H]1CC(CC(=O)NC/C=C(\C)CCC=C(C)C)C(=O)N2CCc3c([nH]c4ccccc34)[C@]12C (some centres undefined) 7.5%
Cc1ccc(NC(=O)CSc2nc3c(c(=O)[nH]2)CN(Cc2ccc(F)cc2)CC3)cc1C -2.11%
C/C(=N\NC(=S)NCc1ccccc1)c1ccco1 2.89%
COc1cc2c(cc1OC)C(COc1ccc(F)cc1)NCC2 (centres undefined) -1.68%
O=C1CC(=O)N(Cc2ccco2)C(=O)N1 50.8%
C#CCOCCOCCOCCNc1nc(N2CCN(C(=O)[C@H](CCCN=C(N)N)n3cc(C(N)[C@@H](C)CC)nn3)CC2)nc(N2CCN(C(=O)[C@H](CCC(=O)O)n3cc([C@@H](N)[C@H](C)CC)nn3)CC2)n1 (some centres undefined) 1.17%
COC(=O)[C@]1(C)N[C@H](CN(C)C(=O)NC(C)C)[C@@H]2C(=O)N(Cc3ccccc3)C(=O)[C@@H]21 -0.959%
Cc1ccc(C2CC(c3cccc(Br)c3)Nc3nnnn32)cc1 (centres undefined) 1.72%
Cc1cc2cc3c(cc2nc1SCC(=O)N1CCOCC1)OCO3 -2.6%
C[C@H]1CN([C@@H](C)CO)C(=O)c2cccc(NS(=O)(=O)c3ccc(F)cc3)c2O[C@H]1CN(C)S(=O)(=O)c1cn(C)cn1 3.04%
O=C(Nc1cc(S(=O)(=O)N2CCOCC2)ccc1N1CCCC1)c1ccc(F)cc1 3.87%
CCC(=O)N1c2ccc(S(=O)(=O)CCC(=O)NCCC3=CCCCC3)cc2CC1C (centres undefined) -3.1%
COc1ccccc1N1CCN(C(=O)CSc2nc(C)cc(=O)[nH]2)CC1 -2.92%
Cc1cccc(NC(=O)/C(=C\c2ccc([N+](=O)[O-])o2)NC(=O)c2ccc(Cl)cc2)c1 3.18%
CCn1c(SCC(=O)Nc2nc(C)cs2)nnc1-c1ccncc1 1%
Brc1ccc(-c2csc(N3CCc4ccccc4C3)n2)cc1 4.32%
COc1ccc(NC(=O)N(C)C[C@H]2Oc3c(NC(=O)Nc4ccccc4)cccc3C(=O)N([C@H](C)CO)C[C@@H]2C)cc1 4.44%
CCOC(=O)C1=C(Cc2ccc(F)cc2)C(=O)c2ccccc2C1=O -0.812%
Cc1ccc(C(=O)NCC(=O)OCC(=O)Nc2ccc(Cl)cc2C(F)(F)F)cc1C -5.13%
Cc1ccc(NC(=O)C(=O)NCCN2CCN(C(=O)C(c3ccccc3)c3ccccc3)CC2)cc1 5.03%
COc1ccccc1-n1c(SCC(=O)N2CCCC2)nc2cccnc21 4.3%
Cc1ccc(O)c(C(=O)c2cc(C#N)c(=O)n(CC3CCCO3)c2)c1 (centres undefined) -1%
CC(C)(C)n1nnnc1C(c1cccnc1)N1CCN(c2ccccc2)CC1 (centres undefined) -0.802%
COc1cc(NC(=O)CSc2nnnn2Cc2ccc3c(c2)OCO3)cc(OC)c1 -2.48%
COc1ccc(NC(=O)CCCN(C)S(=O)(=O)c2ccc(C)cc2)cc1 2.38%
Cc1[nH][nH]c(=O)c1C(c1c(C)[nH][nH]c1=O)c1cn(Cc2cccc3ccccc23)c2ccccc12 -3.25%
CCN(CC(=O)NCC1CCCO1)S(=O)(=O)c1ccc(Cl)cc1 (centres undefined) 1.3%
O=C(CN1C(=O)c2ccccc2C1=O)NCC1COc2ccccc2O1 (centres undefined) 4.76%
CCN(C[C@H]1N[C@@](C)(C(=O)OC)[C@H]2C(=O)N(C)C(=O)[C@@H]12)C(=O)Nc1ccc(OC)cc1 -5.46%
COC(=O)COc1ccc(S(=O)(=O)N2CCOCC2)cc1C 3.53%
COc1ccc(CNC(=O)C2(CC3CC(c4ccccc4)=NO3)CCNCC2)cc1 (centres undefined) 2.92%
CSc1nsc(SCC(=O)Nc2c(C)n(C)n(-c3ccccc3)c2=O)n1 -4.06%
COc1ccccc1NC(=O)c1cccs1 -1.95%
c1ccc(Nc2n[nH]nc2-c2ccccc2)cc1 3.68%
Cc1cc(Cl)ccc1OCc1nc(-c2ccncc2)no1 7.24%

Quoted at random: 2 records from the list
Activity change, negative = inhibition, inactive:
CS(=O)(=O)N(CC(=O)Nc1ccccc1C(=O)NCCc1ccccc1)c1ccc2c(c1)OCCO2 0.741%
COc1ccccc1N1CCN(C(=O)CSc2nc(C)cc(=O)[nH]2)CC1 -2.92%
